These are yes or no findings as the source states them, for the method shown. Some entries that bind do so weakly or less than the wild type.

The chains behind the UniProt entries cited, without tags or fusion partners. Residues count along the entry.
UniProt P15941, residues 1110-1255: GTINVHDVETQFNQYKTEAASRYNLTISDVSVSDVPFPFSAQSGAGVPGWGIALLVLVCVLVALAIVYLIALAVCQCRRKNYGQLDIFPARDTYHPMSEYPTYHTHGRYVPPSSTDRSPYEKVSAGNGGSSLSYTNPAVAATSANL
UniProt P15531, residues 2-152: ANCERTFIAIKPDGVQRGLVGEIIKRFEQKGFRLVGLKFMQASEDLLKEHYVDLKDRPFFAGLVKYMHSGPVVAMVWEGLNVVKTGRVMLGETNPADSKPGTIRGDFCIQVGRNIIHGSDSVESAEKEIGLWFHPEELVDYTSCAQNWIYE

The results in this text go back to patent US20100316688A1.

The experiment has as its target MUC1* (clipped form of MUC1, N-terminus truncated so that the extracellular domain is essentially the PSMGFR) on human stem or progenitor cells (human) (UniProt P15941). Put plainly: immunocytochemistry co-localisation on H9 hESC colonies.

In the case of “NM23 (endogenous, on or in human embryonic stem cells) (from UniProt P15531 2-152) (ligand)”, the binding result is given as “binds”.
